These are yes or no findings as the source states them, for the method shown. In cells and extracts the contact can be indirect. Some entries that bind do so weakly or less than the wild type. Tags and fused reporters may be left off the sequences shown.
T1: CEPR2-nLUC (Arabidopsis thaliana) (UniProt Q9C7T7)
T1 sequence: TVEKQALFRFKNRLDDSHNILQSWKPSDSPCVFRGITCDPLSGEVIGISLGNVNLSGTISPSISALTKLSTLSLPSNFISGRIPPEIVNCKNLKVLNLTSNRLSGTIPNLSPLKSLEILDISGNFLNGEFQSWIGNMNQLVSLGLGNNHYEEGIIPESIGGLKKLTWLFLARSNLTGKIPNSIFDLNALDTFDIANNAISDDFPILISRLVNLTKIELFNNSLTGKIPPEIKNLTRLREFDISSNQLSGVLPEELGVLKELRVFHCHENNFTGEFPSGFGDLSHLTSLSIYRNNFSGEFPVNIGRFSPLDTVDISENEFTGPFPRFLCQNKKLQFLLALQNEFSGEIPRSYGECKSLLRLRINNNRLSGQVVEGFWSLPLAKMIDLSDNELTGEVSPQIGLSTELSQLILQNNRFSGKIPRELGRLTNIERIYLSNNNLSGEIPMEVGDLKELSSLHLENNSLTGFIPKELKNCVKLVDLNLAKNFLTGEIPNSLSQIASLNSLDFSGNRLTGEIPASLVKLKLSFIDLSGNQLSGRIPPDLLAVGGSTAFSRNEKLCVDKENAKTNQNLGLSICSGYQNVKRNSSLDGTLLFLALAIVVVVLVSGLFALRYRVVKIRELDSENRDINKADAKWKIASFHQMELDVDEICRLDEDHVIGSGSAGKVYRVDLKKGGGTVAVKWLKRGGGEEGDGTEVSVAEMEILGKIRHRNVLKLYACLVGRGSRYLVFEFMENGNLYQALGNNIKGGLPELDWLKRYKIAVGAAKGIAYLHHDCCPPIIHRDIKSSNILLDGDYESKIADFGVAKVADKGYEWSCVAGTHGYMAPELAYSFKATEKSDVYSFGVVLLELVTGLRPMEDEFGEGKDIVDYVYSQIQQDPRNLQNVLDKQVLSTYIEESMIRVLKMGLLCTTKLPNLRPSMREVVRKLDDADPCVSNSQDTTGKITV

T2: CEPR2-YFP^N (Arabidopsis thaliana) (UniProt Q9C7T7)
T2 sequence: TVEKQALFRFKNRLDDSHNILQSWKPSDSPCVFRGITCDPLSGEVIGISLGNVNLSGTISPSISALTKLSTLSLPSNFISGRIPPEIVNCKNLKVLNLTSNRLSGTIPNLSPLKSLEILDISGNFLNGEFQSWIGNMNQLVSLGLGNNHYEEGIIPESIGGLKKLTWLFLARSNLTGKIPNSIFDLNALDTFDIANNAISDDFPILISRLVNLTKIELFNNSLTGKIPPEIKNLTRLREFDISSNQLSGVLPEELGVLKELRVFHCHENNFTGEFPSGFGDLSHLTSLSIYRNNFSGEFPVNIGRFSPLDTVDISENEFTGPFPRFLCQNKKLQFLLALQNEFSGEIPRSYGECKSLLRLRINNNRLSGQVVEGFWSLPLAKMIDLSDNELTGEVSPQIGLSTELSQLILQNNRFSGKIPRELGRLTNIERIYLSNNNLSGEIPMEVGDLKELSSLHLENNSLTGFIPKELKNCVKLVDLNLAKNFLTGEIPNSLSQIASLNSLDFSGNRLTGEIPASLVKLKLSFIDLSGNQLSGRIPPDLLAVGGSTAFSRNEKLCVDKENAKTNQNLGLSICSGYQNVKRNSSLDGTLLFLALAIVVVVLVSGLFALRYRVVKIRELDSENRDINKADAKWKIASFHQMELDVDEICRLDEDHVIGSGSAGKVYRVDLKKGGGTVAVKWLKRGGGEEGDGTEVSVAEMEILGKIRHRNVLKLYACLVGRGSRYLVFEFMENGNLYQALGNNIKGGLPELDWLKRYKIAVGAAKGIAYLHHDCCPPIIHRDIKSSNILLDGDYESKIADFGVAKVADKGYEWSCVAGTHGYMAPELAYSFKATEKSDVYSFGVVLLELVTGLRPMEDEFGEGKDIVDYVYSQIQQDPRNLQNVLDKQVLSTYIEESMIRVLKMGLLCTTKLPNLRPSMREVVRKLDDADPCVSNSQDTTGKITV


Experiments:
[1] = target: T1, CEPR2-nLUC (Arabidopsis thaliana); assay: split reporter
[2] = target: T2, CEPR2-YFP^N (Arabidopsis thaliana); assay: split reporter

binding [1]	binding [2]	Binder
binds	–	NRT1.2-cLUC (protein, UniProt Q8H157 1-585) MEVEEEVSRWEGYADWRNRAAVKGRHGGMLAASFVLVVEILENLAYLANASNLVLYLREYMHMSPSKSANDVTNFMGTAFLLALLGGFLSDAFFSTFQIFLISASIEFLGLIILTIQARTPSLMPPSCDSPTCEEVSGSKAAMLFVGLYLVALGVGGIKGSLASHGAEQFDESTPKGRKQRSTFFNYFVFCLACGALVAVTFVVWLEDNKGWEWGFGVSTIAIFVSILIFLSGSRFYRNKIPCGSPLTTILKVLLAASVKCCSSGSSSNAVASMSVSPSNHCVSKGKKEVESQGELEKPRQEEALPPRAQLTNSLKVLNGAADEKPVHRLLECTVQQVEDVKIVLKMLPIFACTIMLNCCLAQLSTFSVQQAASMNTKIGSLKIPPASLPIFPVVFIMILAPIYDHLIIPFARKATKTETGVTHLQRIGVGLVLSILAMAVAALVEIKRKGVAKDSGLLDSKETLPVTFLWIALQYLFLGSADLFTLAGLLEYFFTEAPSSMRSLATSLSWASLAMGYYLSSVIVSIVNSITGSSGNTPWLRGKSINRYKLDYFYWLMCVLSAANFLHYLFWAMRYKYRSTGSRS
–	binds	NRT1.2-YFP^C (protein, UniProt Q8H157 1-585) MEVEEEVSRWEGYADWRNRAAVKGRHGGMLAASFVLVVEILENLAYLANASNLVLYLREYMHMSPSKSANDVTNFMGTAFLLALLGGFLSDAFFSTFQIFLISASIEFLGLIILTIQARTPSLMPPSCDSPTCEEVSGSKAAMLFVGLYLVALGVGGIKGSLASHGAEQFDESTPKGRKQRSTFFNYFVFCLACGALVAVTFVVWLEDNKGWEWGFGVSTIAIFVSILIFLSGSRFYRNKIPCGSPLTTILKVLLAASVKCCSSGSSSNAVASMSVSPSNHCVSKGKKEVESQGELEKPRQEEALPPRAQLTNSLKVLNGAADEKPVHRLLECTVQQVEDVKIVLKMLPIFACTIMLNCCLAQLSTFSVQQAASMNTKIGSLKIPPASLPIFPVVFIMILAPIYDHLIIPFARKATKTETGVTHLQRIGVGLVLSILAMAVAALVEIKRKGVAKDSGLLDSKETLPVTFLWIALQYLFLGSADLFTLAGLLEYFFTEAPSSMRSLATSLSWASLAMGYYLSSVIVSIVNSITGSSGNTPWLRGKSINRYKLDYFYWLMCVLSAANFLHYLFWAMRYKYRSTGSRS

— article doi:10.1101/2020.02.18.953711 (bioRxiv, 2020)
